PubChem BioAssay AID540256 (National Center for Advancing Translational Sciences (NCATS), 2011)
The campaign covered roughly 300,000 compounds. About 3,700 (1.2%) were called active. Inconclusive results, whose numbers are uncertain, are shown with a selection of clear calls. The call rests on the fitted dose curve; tested in HEK293 cells. Potencies of inconclusive entries are doubtful fits and often do not repeat.

experiment: qHTS for Inhibitors of binding or entry into cells for Lassa Virus; conditions: Lassa virus pseudotype entry inhibition, cell reporter; activity change, negative = inhibition: at 37.9 µM (top of the series) unless noted; further: nearly all actives have a fitted effect of over 50% in size
On the % scale 0 is the no-effect control and ±100 the full control effect; potency means the concentration at half of the fitted maximal effect.

Row | SMILES | activity change, negative = inhibition | Potency
1 | O=C(CN(C1CCCCC1)S(=O)(=O)c1ccccc1)N1CCCC1 | inactive: 16.3% | –
2 | Cc1cc(C)nc(N2CCC(CNC(=O)CCc3ccccc3)CC2)n1 | inactive: 7.72% | –
3 | CC(C)(C)C1CCC(OCC(O)CN2CCN(c3ccccn3)CC2)CC1 (stereo not drawn) | – | inconclusive: 1.26 µM [inhibitor, partial curve, poor fit]
4 | CCc1ccc(N(C(=O)c2ccco2)C(C(=O)NC2CCCC2)c2cccnc2)cc1 (stereo not drawn) | – | active: 1 µM
5 | COCCCNC(=O)c1[nH]c2cc(OC)ccc2c1Sc1ccc(C)cc1 | – | inconclusive: 35.5 µM [inhibitor, single point]
6 | C/C(=N\Nc1ncnc2sc(C)c(C)c12)c1ccccn1 | – | inconclusive: 1.12 µM [inhibitor, full curve, poor fit]
7 | Cc1cc(C)nc(SCC(=O)Nc2ccc3c(c2)OCO3)n1 | inactive: 13.8% [at 46.1 µM] | –
8 | C/C(=N\N1CCN(Cc2ccccc2)CC1)c1ccco1 | inactive: 12.4% | –
9 | c1ccc2sc(NN=C3CCCC3)nc2c1 | – | inconclusive: 14.1 µM [inhibitor, single point]
10 | COc1ccc(N=Nc2ccc(N)nc2N)cc1 | – | inconclusive: 5.62 µM [inhibitor, single point]
11 | O=C(OCC(=O)N1CCCC1)c1cc([N+](=O)[O-])ccc1Cl | inactive: 16.1% [at 46.1 µM] | –
12 | O=c1[nH]c(=S)[nH]c(O)c1/C=C1/C=c2ccccc2=N1 | – | inconclusive: 35.5 µM [inhibitor, partial curve, poor fit]
13 | COc1ccc(Cn2ccc3nc(C)c(C(=O)Nc4ccc(F)cc4)cc3c2=O)cc1 | – | inconclusive: 22.4 µM [inhibitor, single point]
14 | CC(C)CC(=O)NC(=S)Nc1cc(C(=O)O)ccc1Cl | – | inconclusive: 35.5 µM [inhibitor, partial curve, poor fit]
15 | CN(C)CC/C=C1/c2cc(F)ccc2Sc2ccc(Cl)cc21 | – | inconclusive: 35.5 µM [inhibitor, single point]
16 | Nc1nc(Cl)cc(N2CCC(c3cc(-c4ccc(Cl)cc4)n[nH]3)CC2)n1 | – | active: 6.51 µM
17 | COc1ccc(CC(=O)Oc2ccc(Br)cc2F)cc1S(=O)(=O)N1CCOCC1 | inactive: 8.37% | –
18 | CCOc1ccc(C(=O)Nc2ccc(N3CCN(C)CC3)cc2)cc1Br | inactive: 5.96% | –
19 | O=c1c2ccccc2nc(/C=C/c2ccccc2)n1-c1ccccc1O | – | inconclusive: 35.5 µM [inhibitor, partial curve, poor fit]
20 | COc1ccc(-c2c3c(=O)n(C)c(=O)n(C)c3cn2-c2cccc(N)c2)cc1 | – | inconclusive: 7.08 µM [inhibitor, partial curve, poor fit]
21 | COc1cccc(CN2C(=O)N(c3ccc(C)cc3)C(=O)C2CC(=O)Nc2cc(OC)cc(OC)c2)c1 (stereo not drawn) | – | inconclusive: 8.91 µM [inhibitor, partial curve, poor fit]
22 | CNc1nc(-c2ccc3c(c2)CCN3S(=O)(=O)c2ccccc2)c(C)s1 | – | inconclusive: 35.5 µM [inhibitor, single point]
23 | COc1ccc(-c2csc(NC(=O)c3ccccc3NS(=O)(=O)c3ccc(F)c(F)c3)n2)cc1 | – | active: 3.66 µM

Quoted at random: 3 entries already listed
Row | SMILES | activity change, negative = inhibition | Potency
5 | COCCCNC(=O)c1[nH]c2cc(OC)ccc2c1Sc1ccc(C)cc1 | – | inconclusive: 35.5 µM [inhibitor, single point]
11 | O=C(OCC(=O)N1CCCC1)c1cc([N+](=O)[O-])ccc1Cl | inactive: 16.1% [at 46.1 µM] | –
16 | Nc1nc(Cl)cc(N2CCC(c3cc(-c4ccc(Cl)cc4)n[nH]3)CC2)n1 | – | active: 6.51 µM

Continuation:

Row | SMILES | activity change, negative = inhibition | Potency
24 | CCOc1ccc(S(=O)(=O)N(CC)CC)cc1NC(=O)c1ccc(N2CCCC2=O)cc1 | – | inconclusive: 2 µM [inhibitor, single point]
25 | O=C(NNc1nc2cc3c(cc2s1)OCO3)c1cccc(F)c1 | inactive: 14.4% | –
26 | CC(C)OC(=O)c1cc(NC(=S)Nc2ccc([N+](=O)[O-])cc2)cc(C(=O)OC(C)C)c1 | – | inconclusive: 35.5 µM [inhibitor, single point]
27 | Cc1cccc(NC(=S)NC2CC3CCCC(C2)N3Cc2cccs2)c1C (stereo not drawn) | – | inconclusive: 23.1 µM [inhibitor, single point]
28 | COc1ccc(OC)c(NC(=O)CCN2CCN(c3ccccc3F)CC2)c1 | – | inconclusive: 14.6 µM [inhibitor, partial curve]
29 | CCOC(=O)c1nc2cc3n(c(CC(C)C)c-2c1C)CC(C)=C3C | inactive: -13.9% | –
30 | COc1ccc(C(=O)Cn2cc([N+](=O)[O-])nc2C)cc1 | – | inconclusive: 35.5 µM [activator, single point]
31 | CCOC(=O)c1cc(-c2ccccc2)n(CCC(=O)Nc2ccc(C(F)(F)F)cc2)c1C | – | inconclusive: 11.2 µM [inhibitor, single point]
32 | CCC(=NCCc1ccccc1)c1c(O)n(C2CCCCC2)c(=O)[nH]c1=O | – | inconclusive: 20.6 µM [inhibitor, single point]
33 | Cc1ccc(C(=O)CCC(=O)N2CCC(C(N)=O)CC2)cc1 | – | inconclusive: 35.5 µM [activator, single point]
34 | Cc1cc2occ(CC(=O)N(C)CC(=O)Nc3ccc(F)cc3)c2cc1C | – | inconclusive: 35.5 µM [inhibitor, partial curve, poor fit]
35 | CC1CCCCN1C(=O)CSc1nnc(-c2ccco2)o1 (stereo not drawn) | – | inconclusive: 35.5 µM [inhibitor, single point]
36 | Cc1nn(Cc2ccccc2Cl)c2sc(C(=O)OC3CCCC3=O)cc12 (stereo not drawn) | – | inconclusive: 13 µM [inhibitor, partial curve, poor fit]
37 | O=C(NCCOCCO)C(=O)Nc1c2c(nn1-c1ccc(F)cc1)CSC2 | inactive: 8.36% [at 46.1 µM] | –
38 | Cc1nn(-c2ccccc2)c2c1N(CC(=O)NCc1ccc(N(C)C)cc1)C(=O)CS2 | – | inconclusive: 6.31 µM [inhibitor, single point]
39 | CCOc1ccc(-c2[nH]ncc2-c2csc(C)n2)c(O)c1 | – | inconclusive: 17.8 µM [inhibitor, partial curve, poor fit]
40 | O=C1C2C3C=CC(C3=C3CCCCC3)C2C(=O)N1Cc1ccccc1 (stereo not drawn) | – | inconclusive: 10.3 µM [inhibitor, partial curve, poor fit]
41 | COC(=O)c1cn(NC(=O)c2ccc(OC)c([N+](=O)[O-])c2)c(=O)c2ccccc12 | – | inconclusive: 12.6 µM [activator, partial curve, poor fit]
42 | Cc1cccc(NC(=O)CSc2nc3ccc(NC(=O)COc4ccc(Cl)cc4)cc3s2)c1 | inactive: 1.03% [at 46.1 µM] | –
43 | O=S(=O)(CCN(CCS(=O)(=O)C(F)(F)F)CC1CCCO1)C(F)(F)F (stereo not drawn) | – | inconclusive: 29.1 µM [inhibitor, single point]
44 | O=C(CN(Cc1ccc(F)cc1)S(=O)(=O)c1ccccc1)N1CCCCC1 | – | inconclusive: 11.2 µM [inhibitor, partial curve, poor fit]
45 | CCOC(=O)c1sc(NC(=O)CSC(=S)N2CCOCC2)nc1C | – | inconclusive: 7.94 µM [inhibitor, partial curve, poor fit]
46 | O=C(NCCN1C(=O)S/C(=C\c2ccc(OC(F)F)cc2)C1=O)C1=COCCO1 | – | inconclusive: 0.398 µM [inhibitor, full curve, poor fit]

Row | SMILES | activity change, negative = inhibition | Potency
47 | Cc1ccccc1OCc1nc2ccccc2c(=O)n1/N=C/c1c[nH]c2ccccc12 | – | inconclusive: 12.6 µM [inhibitor, partial curve]
48 | COc1ccc(C2CC(c3ccc(OC)cc3)n3nc(NC(=O)c4cccs4)nc3N2)cc1 (stereo not drawn) | – | inconclusive: 20.6 µM [inhibitor, single point]
49 | CCCn1nnnc1-c1ccc(Cl)cc1 | inactive: 3.63% | –
50 | Cn1c(N)c(C(=O)COC(=O)C2CCCCC2)c(=O)n(C)c1=O | inactive: 6.98% [at 14.3 µM] | –
51 | COc1ccc(CNC(=O)COc2ccc(C(=O)c3ccc(F)cc3)cc2)cc1 | – | inconclusive: 0.891 µM [inhibitor, full curve]
52 | Clc1ccc(-n2ncc3c(NCc4ccccn4)ncnc32)cc1 | – | inconclusive: 20.6 µM [activator, single point]
53 | N#CC1=C(N)SC(N)=C(C#N)C1c1ccnc2ccccc12 | inactive: -1.27% | –
54 | Cc1nc2ccccc2n1CC(=O)NC1CCCC1 | inactive: -2.01% | –
55 | COc1ccc(C)cc1NC(=O)CNC(=O)Cn1ccc2ccccc2c1=O | inactive: -0.186% | –
56 | CC(C)c1ccc(NC(=O)C(c2ccccc2)N(Cc2ccco2)C(=O)CC2NC(=O)NC2=O)cc1 (stereo not drawn) | – | inconclusive: 7.08 µM [inhibitor, partial curve, poor fit]
57 | CCC(C)(C)C(=O)Nc1ncc(S(=O)(=O)c2ccc([N+](=O)[O-])cc2)s1 | inactive: -2.63% | –
58 | CCN(C(=O)c1cnc(N2CCN(c3ncccn3)CC2)c2ccccc12)c1cccc(Cl)c1 | – | inconclusive: 35.5 µM [inhibitor, single point]
59 | Cc1ccc(C)c(N2N=C(C(=O)Nc3ccccc3N3CCOCC3)CCC2=O)c1 | inactive: -25.1% | –
60 | COc1ccc(-c2nc3ccc(NS(C)(=O)=O)cc3o2)cc1 | – | inconclusive: 6.31 µM [activator, single point]
61 | Cc1ccc2[nH]c3c(=O)n(CCC4=CCCCC4)cnc3c2c1 | – | inconclusive: 0.794 µM [inhibitor, full curve, poor fit]
62 | Cc1cccc2nc(-c3ccc(N(C)C)cc3)c(Nc3ccc4c(c3)OCO4)n12 | – | inconclusive: 35.5 µM [activator, single point]
63 | Cc1nc(/C=C/c2ccccc2)cc(/C=C/c2ccccc2)n1 | inactive: 1.1% | –
64 | Cc1ccc(/C=N/NC(=O)c2n[nH]c3c2CCCC3)cc1 | – | inconclusive: 1.58 µM [inhibitor, full curve, poor fit]
65 | O=C(c1ccccc1)C1CN(Cc2ccccc2)CCC1(O)c1ccccc1 (stereo not drawn) | – | inconclusive: 35.5 µM [inhibitor, single point]
66 | CCOc1ccc2nc(NC(=O)CSc3nc4cccnc4n3C)sc2c1 | – | inconclusive: 14.1 µM [inhibitor, single point]
67 | COC(=O)C1C/C(=N/NS(=O)(=O)c2ccc(C)cc2)CS1 (stereo not drawn) | inactive: 3.41% [at 46.1 µM] | –
68 | S=c1[nH]ncn1NCc1cccc(Br)c1 | – | inconclusive: 39.8 µM [inhibitor, partial curve, poor fit]
